These results are taken from the supplement of paper PMC12889115.

For this assay, the system named is Salmonella enterica serovar Typhimurium SL1344. The experiment in a line: bacterial growth OD600 after 18 h with compound and polymyxin B; higher = more bacterial growth (less inhibition). As to conditions: 50 µM, Mueller-Hinton broth.

SMILES strings stand for the structures. Some of the results follow. These are raw signals, not scaled to a control.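 In the initial screen, polymyxin B was used at a concentration that permeabilizes Salmonella's outer membrane but not its inner membrane. Maximum growth was set by DMSO wells with or without polymyxin B. Since plates varied, data were ranked per plate, and compounds giving the lowest OD600 advanced as hits.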

Regarding `c1cncc(CN2CCc3[nH]nc(-c4ccc5c(c4)OCO5)c3C2)c1`, for the setting “polymyxin B 0.75 µg/mL”, the “bacterial growth OD600” value stood at 0.834.
Consider `O=C(c1cc(F)ccc1F)C1CCCN(C(=O)CN2C(=O)c3ccccc3C2=O)C1` (stereo unspecified), for which the “bacterial growth OD600” value (polymyxin B 1 µg/mL) stood at 0.79.
In the case of `CCN(CC)CC(O)COc1ccc(CNCC2CCCCC2)cc1OC` (stereo unspecified), the “bacterial growth OD600” value (polymyxin B 1 µg/mL) amounted to 1.09.
Turning to `Cc1nc(N2CCC(C(=O)NCCc3cnn(-c4ccccc4)c3)CC2)nc2ccc(C(C)C)cc12`, the “bacterial growth OD600” value (polymyxin B 0.75 µg/mL) amounted to 0.511.
`O=C(NCc1cnn(Cc2ccccc2)c1)C1CCC(=O)N(CCN2CCOCC2)C1` (stereo unspecified): for the setting “polymyxin B 1 µg/mL”, the “bacterial growth OD600” value was determined as 0.857.
In the case of `CCCc1cc(CNC(=O)c2ccc(N3CCN(C(C)C)CC3)nc2)on1`, the “bacterial growth OD600” value (polymyxin B 1 µg/mL) was 0.95.
With `COc1ccc(O)c(CN2CCC(C3(Cc4ccccc4Cl)NC(=O)N(CC4CC4)C3=O)CC2)c1` (stereo unspecified), the “bacterial growth OD600” value (polymyxin B 0.75 µg/mL) amounted to 0.743.
Consider `OCCC1CN(Cc2ccc(F)cc2)CCN1Cc1ccccc1F` (stereo unspecified), for which, where the note is “polymyxin B 1 µg/mL”, the “bacterial growth OD600” value was found to be 0.873.
As for `Cc1cc2ncn(Cc3cc(C(=O)N(C)C(C)c4nccs4)n[nH]3)c2cc1C` (stereo unspecified), the “bacterial growth OD600” value (polymyxin B 1 µg/mL) worked out at 1.16.
Same read-out and setting: under `CC(=O)N1CCC(N2CCC(n3nccc3NC(=O)CCCc3ccccc3)CC2)CC1` stands 0.932.
As to `CCOC(=O)N1CCN(C(=O)C2CC23CCN(C(=O)c2cc(C(C)C)n[nH]2)CC3)CC1` (stereo unspecified), the “bacterial growth OD600” value (polymyxin B 0.75 µg/mL) came out at 1.01.
For the compound `COc1ccccc1Oc1ncccc1CNCc1cnn(C)c1`, the “bacterial growth OD600” value (polymyxin B 1 µg/mL) is 1.13.
`OCC1CCN(c2ncc3c(n2)CCCC3NCc2cccc(Cl)c2)CC1` (stereo unspecified): the “bacterial growth OD600” value (polymyxin B 0.75 µg/mL) came to 0.757.
As to `CC(c1cccs1)N(C)C(=O)c1cc(COc2ccc3c(c2)OCO3)[nH]n1` (stereo unspecified), the “bacterial growth OD600” value (polymyxin B 1 µg/mL) was 1.02.
Turning to `COc1ccc(C(=O)N2CCC3(CC2)c2ccccc2[C@@H](NC(=O)c2ccccc2)[C@@H]3O)cc1F`, the “bacterial growth OD600” value (polymyxin B 0.75 µg/mL) worked out at 0.995.
For the compound `CN(CC(=O)N(C)C1CCCN(CCc2ccccc2)C1)Cc1cccnc1` (stereo unspecified), for the setting “polymyxin B 1 µg/mL”, the “bacterial growth OD600” value was 1.05.
As to `COc1ccc(Cc2nc3ccc(C(=O)N(C)Cc4nccn4C)cc3o2)cc1`, the “bacterial growth OD600” value (polymyxin B 1 µg/mL) is 0.89.
With `COC(=O)[C@@H](NC(=O)C1CCN(c2nc(C)c3ccccc3n2)CC1)C(C)C`, the “bacterial growth OD600” value (polymyxin B 0.75 µg/mL) stood at 0.893.
With `CCn1nc(C)cc1C(=O)N(CC1CCN(Cc2ccccc2F)CC1)CC1CCCO1` (stereo unspecified), the “bacterial growth OD600” value (polymyxin B 1 µg/mL) was 1.15.
As to `COc1ccccc1CCc1nnc(CCC(=O)N2CCN(CC3CC3)CC2)o1`, the “bacterial growth OD600” value (polymyxin B 1 µg/mL) worked out at 0.918.
In the case of `CCOc1cc(CN2CCCC(Nc3cccc(F)c3)C2)ccc1O` (stereo unspecified), the “bacterial growth OD600” value (polymyxin B 1 µg/mL) worked out at 0.868.
Regarding `CN(CCc1cnn(C)c1)C(=O)CC1(c2cccc(C(F)(F)F)c2)CC(=O)N(C2CC2)C1=O` (stereo unspecified), the “bacterial growth OD600” value (polymyxin B 0.75 µg/mL) was found to be 0.764.
Turning to `O=C1CC(NC2CSCCSC2)CN1CCc1ccc(F)cc1` (stereo unspecified), for the setting “polymyxin B 1 µg/mL”, the “bacterial growth OD600” value is 0.952.
On to `Cc1ccc2c(c1)CN(CCNC(=O)C1=CCCC1)CC(C)O2` (stereo unspecified), for which the “bacterial growth OD600” value (polymyxin B 0.75 µg/mL) is 0.799.
Regarding `COCC1CCN(C(=O)c2cc(COc3ccc(F)cc3Cl)on2)CC1`, where the note is “polymyxin B 1 µg/mL”, the “bacterial growth OD600” value amounted to 0.96.
For `Cn1ccnc1CN1CCOC(CC2CCCCC2)C1` (stereo unspecified), the “bacterial growth OD600” value (polymyxin B 0.75 µg/mL) came to 0.859.
In the case of `Cc1ccc(C)c(OCc2cc(C(=O)N3CCCC4(CCCN(C)C4)C3)no2)c1` (stereo unspecified), the “bacterial growth OD600” value (polymyxin B 0.75 µg/mL) came to 0.788.
Regarding `Cc1nn(C)cc1CN1CCOc2ccc(C(O)C(c3ccccc3)c3ccccc3)cc2C1` (stereo unspecified), where the note is “polymyxin B 0.75 µg/mL”, the “bacterial growth OD600” value was 0.794.
For `Cc1cccc(NC(=O)CCC2CCN(S(=O)(=O)c3ccsc3)CC2)c1`, the “bacterial growth OD600” value (polymyxin B 1 µg/mL) stood at 1.13.
In the case of `CCn1cc(C(=O)NCc2cccnc2N2CCCCCCC2)cn1`, the “bacterial growth OD600” value (polymyxin B 0.75 µg/mL) was 0.955.
Same read-out and setting: under `O=C(CCCc1ccccc1)Nc1cccc(N2CCC(N[C@@H]3CS(=O)(=O)C[C@H]3O)CC2)c1` stands 0.814.
